Experiment [1] addresses T1, cognate unmethylated K142 peptide of DNMT1 (human).
T1 sequence (peptide, coupled to Sulfolink resin through the C-terminal cysteine): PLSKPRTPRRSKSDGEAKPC
The experiment can be described thus: pull-down; DNMT1 K142me1 or K142me0 peptide on Sulfolink resin, pre-blocked with 5 μg GST for 2 h, then 1.5 μg GST fusion protein in 0.1% NP40, 50 mM Tris-Cl pH 7.5, 150 mM NaCl at 4 °C; western blot; both purified.

Protein sequences, listed by entry. Tags and fused reporters are not part of them.
UniProt P26358: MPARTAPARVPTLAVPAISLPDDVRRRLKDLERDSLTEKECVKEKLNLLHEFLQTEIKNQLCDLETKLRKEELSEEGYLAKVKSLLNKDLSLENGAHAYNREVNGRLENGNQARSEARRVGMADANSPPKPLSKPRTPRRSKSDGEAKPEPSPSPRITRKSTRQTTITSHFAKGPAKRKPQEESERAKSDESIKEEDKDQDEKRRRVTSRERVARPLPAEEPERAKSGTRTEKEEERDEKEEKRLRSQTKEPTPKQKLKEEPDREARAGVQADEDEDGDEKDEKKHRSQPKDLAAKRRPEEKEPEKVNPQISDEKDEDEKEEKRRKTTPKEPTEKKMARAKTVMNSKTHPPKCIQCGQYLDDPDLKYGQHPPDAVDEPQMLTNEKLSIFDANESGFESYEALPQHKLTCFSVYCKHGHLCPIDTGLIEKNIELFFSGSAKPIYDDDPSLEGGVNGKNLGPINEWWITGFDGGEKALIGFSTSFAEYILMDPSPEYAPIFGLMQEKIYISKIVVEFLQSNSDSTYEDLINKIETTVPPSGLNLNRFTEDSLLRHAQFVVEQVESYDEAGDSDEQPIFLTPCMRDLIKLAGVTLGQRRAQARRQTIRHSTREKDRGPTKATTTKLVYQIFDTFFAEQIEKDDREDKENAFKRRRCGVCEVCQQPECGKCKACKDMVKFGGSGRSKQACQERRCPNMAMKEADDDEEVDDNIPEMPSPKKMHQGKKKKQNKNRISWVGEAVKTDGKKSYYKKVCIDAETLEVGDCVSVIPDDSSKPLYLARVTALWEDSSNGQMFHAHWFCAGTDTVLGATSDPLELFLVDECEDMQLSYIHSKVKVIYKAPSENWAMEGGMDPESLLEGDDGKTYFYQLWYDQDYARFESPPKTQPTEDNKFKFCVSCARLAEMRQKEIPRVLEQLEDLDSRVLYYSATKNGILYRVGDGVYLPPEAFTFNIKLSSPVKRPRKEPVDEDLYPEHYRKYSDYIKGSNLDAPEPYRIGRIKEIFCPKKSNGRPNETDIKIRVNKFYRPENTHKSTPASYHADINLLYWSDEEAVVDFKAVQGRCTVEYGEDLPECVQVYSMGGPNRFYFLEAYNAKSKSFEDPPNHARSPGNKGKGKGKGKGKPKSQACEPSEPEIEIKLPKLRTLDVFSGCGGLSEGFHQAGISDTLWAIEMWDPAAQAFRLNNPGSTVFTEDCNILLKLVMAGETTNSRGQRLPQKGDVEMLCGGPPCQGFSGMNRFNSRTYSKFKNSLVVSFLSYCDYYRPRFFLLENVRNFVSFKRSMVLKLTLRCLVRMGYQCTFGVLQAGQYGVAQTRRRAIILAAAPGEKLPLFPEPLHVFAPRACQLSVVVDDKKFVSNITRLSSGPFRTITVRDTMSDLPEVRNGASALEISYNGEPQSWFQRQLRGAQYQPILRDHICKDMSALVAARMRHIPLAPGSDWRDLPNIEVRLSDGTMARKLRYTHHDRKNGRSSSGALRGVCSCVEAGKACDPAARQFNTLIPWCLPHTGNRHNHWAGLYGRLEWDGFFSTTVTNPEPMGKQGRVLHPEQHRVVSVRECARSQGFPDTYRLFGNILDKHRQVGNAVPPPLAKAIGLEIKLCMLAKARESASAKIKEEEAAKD
UniProt Q01094: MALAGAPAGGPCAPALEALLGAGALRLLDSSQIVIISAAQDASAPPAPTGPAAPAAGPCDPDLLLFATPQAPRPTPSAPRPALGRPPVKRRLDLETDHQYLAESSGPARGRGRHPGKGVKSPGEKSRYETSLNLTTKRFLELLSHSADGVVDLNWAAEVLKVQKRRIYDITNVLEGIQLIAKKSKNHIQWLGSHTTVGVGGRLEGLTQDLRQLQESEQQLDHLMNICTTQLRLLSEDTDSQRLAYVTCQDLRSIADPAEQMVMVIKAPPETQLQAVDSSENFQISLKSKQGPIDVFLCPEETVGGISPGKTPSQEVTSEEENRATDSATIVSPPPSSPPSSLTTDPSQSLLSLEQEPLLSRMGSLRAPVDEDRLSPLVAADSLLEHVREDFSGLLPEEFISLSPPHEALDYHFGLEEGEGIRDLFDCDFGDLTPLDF

Experiment [2] has as its target DNA (cytosine-5)-methyltransferase 1 (DNMT1), endogenous (human (endogenous in HCT116)) (UniProt P26358). The experiment can be described thus: co-IP; endogenous proteins, HCT116 synchronized at the G1/S border by thymidine and aphidicolin, 0-9 h after release.
For experiment [3] the target is unchanged. The experiment is described as follows: condition: only 10–12 h after release from the G1/S border; co-IP; endogenous proteins, HCT116 synchronized at the G1/S border by thymidine and aphidicolin, 10-12 h after release (late S and early G2).
For experiment [4] the target is unchanged. The experiment is described as follows: co-IP; endogenous proteins, HCT116 synchronized at the G1/S border by thymidine and aphidicolin, 10-12 h after release (late S and early G2).
For experiment [5] the target is unchanged. The experiment is described as follows: co-IP; endogenous proteins immunoprecipitated from HCT116 lysates (0.5% NP40, 50 mM Tris pH 7.5, 150 mM NaCl; usually 500 μg lysate; Protein A-Sepharose), western blot; in some panels cells with SET7 expression, SET7 or PHF20L1 siRNA, MG132 5 μg/ml for the last 6 h. (In general: Immunoblotting shows a protein as a band on a membrane.)

Experiment [6] concerns the target E2F1, endogenous (human (endogenous in HCT116)) (UniProt Q01094). The experiment is described as above.
Experiment [7] addresses DNA (cytosine-5)-methyltransferase 1 (DNMT1), endogenous (human (endogenous in HCT116)) (UniProt P26358). The experiment can be described thus: co-IP; one partner a Flag- or HA-tagged construct expressed in HCT116 (transient or stable), the other endogenous; NP40 lysis buffer, western blot; in some panels SET7 co-expressed or MG132 for the last 6 h.

Results are given in words; binding and its absence hold for the method and conditions named. For some assays here: In cells and extracts the contact can be indirect. Some results given as binding are weak or reduced against the parent protein; the word gives no strength. For some assays here: Where a sequence is shown, tags or fusion partners need not be part of it.

B1: GST-L3MBTL1 (protein, UniProt Q9Y468 1-840)
chain: MHLVAGDSPGSGPHLPATAFIIPASSATLGLPSSALDVSCFPREPIHVGAPEQVAGCEPVSATVLPQLSAGPASSSTSTVRLLEWTEAAAPPPGGGLRFRISEYKPLNMAGVEQPPSPELRQEGVTEYEDGGAPAGDGEAGPQQAEDHPQNPPEDPNQDPPEDDSTCQCQACGPHQAAGPDLGSSNDGCPQLFQERSVIVENSSGSTSASELLKPMKKRKRREYQSPSEEESEPEAMEKQEEGKDPEGQPTASTPESEEWSSSQPATGEKKECWSWESYLEEQKAITAPVSLFQDSQAVTHNKNGFKLGMKLEGIDPQHPSMYFILTVAEVCGYRLRLHFDGYSECHDFWVNANSPDIHPAGWFEKTGHKLQPPKGYKEEEFSWSQYLRSTRAQAAPKHLFVSQSHSPPPLGFQVGMKLEAVDRMNPSLVCVASVTDVVDSRFLVHFDNWDDTYDYWCDPSSPYIHPVGWCQKQGKPLTPPQDYPDPDNFCWEKYLEETGASAVPTWAFKVRPPHSFLVNMKLEAVDRRNPALIRVASVEDVEDHRIKIHFDGWSHGYDFWIDADHPDIHPAGWCSKTGHPLQPPLGPREPSSASPGGCPPLSYRSLPHTRTSKYSFHHRKCPTPGCDGSGHVTGKFTAHHCLSGCPLAERNQSRLKAELSDSEASARKKNLSGFSPRKKPRHHGRIGRPPKYRKIPQEDFQTLTPDVVHQSLFMSALSAHPDRSLSVCWEQHCKLLPGVAGISASTVAKWTIDEVFGFVQTLTGCEDQARLFKDEARIVRVTHVSGKTLVWTVAQLGDLVCSDHLQEGKGILETGVHSLLCSLPTHLLAKLSFASDSQY
In the case of B1, the binding entry in experiment [1] is “no binding (tested: 1.5 μg)”.

B2: PHF20L1, endogenous (protein, UniProt A8MW92 1-1017)
chain: MSKKPPNRPGITFEIGARLEALDYLQKWYPSRIEKIDYEEGKMLVHFERWSHRYDEWIYWDSNRLRPLERPALRKEGLKDEEDFFDFKAGEEVLARWTDCRYYPAKIEAINKEGTFTVQFYDGVIRCLKRMHIKAMPEDAKGQVKSQHPLSWCCPIDPAGSCNQSMGSEDWIALVKAAAAAAAKNKTGSKPRTSANSNKDKDKDERKWFKVPSKKEETSTCIATPDVEKKEDLPTSSETFGLHVENVPKMVFPQPESTLSNKRKNNQGNSFQAKRARLNKITGLLASKAVGVDGAEKKEDYNETAPMLEQAISPKPQSQKKNEADISSSANTQKPALLSSTLSSGKARSKKCKHESGDSSGCIKPPKSPLSPELIQVEDLTLVSQLSSSVINKTSPPQPVNPPRPFKHSERRRRSQRLATLPMPDDSVEKVSSPSPATDGKVFSISSQNQQESSVPEVPDVAHLPLEKLGPCLPLDLSRGSEVTAPVASDSSYRNECPRAEKEDTQMLPNPSSKAIADGRGAPAAAGISKTEKKVKLEDKSSTAFGKRKEKDKERREKRDKDHYRPKQKKKKKKKKKSKQHDYSDYEDSSLEFLERCSSPLTRSSGSSLASRSMFTEKTTTYQYPRAILSVDLSGENLSDVDFLDDSSTESLLLSGDEYNQDFDSTNFEESQDEDDALNEIVRCICEMDEENGFMIQCEECLCWQHSVCMGLLEESIPEQYICYICRDPPGQRWSAKYRYDKEWLNNGRMCGLSFFKENYSHLNAKKIVSTHHLLADVYGVTEVLHGLQLKIGILKNKHHPDLHLWACSGKRKDQDQIIAGVEKKIAQDTVNREEKKYVQNHKEPPRLPLKMEGTYITSEHSYQKPQSFGQDCKSLADPGSSDDDDVSSLEEEQEFHMRSKNSLQYSAKEHGMPEKNPAEGNTVFVYNDKKGTEDPGDSHLQWQLNLLTHIENVQNEVTSRMDLIEKEVDVLESWLDFTGELEPPDPLARLPQLKRHIKQLLIDMGKVQQIATLCSV
With B2, the binding entry in experiment [2] is “binds”; in experiment [3], “no binding”.

B3: L3MBTL3, endogenous (protein, UniProt Q96JM7 1-780)
chain: MTESASSTSGQEFDVFSVMDWKDGVGTLPGSDLKFRVNEFGALEVITDENEMENVKKATATTTWMVPTAQEAPTSPPSSRPVFPPAYWTSPPGCPTVFSEKTGMPFRLKDPVKVEGLQFCENCCQYGNVDECLSGGNYCSQNCARHIKDKDQKEERDVEEDNEEEDPKCSRKKKPKLSLKADTKEDGEERDDEMENKQDVRILRGSQRARRKRRGDSAVLKQGLPPKGKKAWCWASYLEEEKAVAVPAKLFKEHQSFPYNKNGFKVGMKLEGVDPEHQSVYCVLTVAEVCGYRIKLHFDGYSDCYDFWVNADALDIHPVGWCEKTGHKLHPPKGYKEEEFNWQTYLKTCKAQAAPKSLFENQNITVIPSGFRVGMKLEAVDKKNPSFICVATVTDMVDNRFLVHFDNWDESYDYWCEASSPHIHPVGWCKEHRRTLITPPGYPNVKHFSWDKYLEETNSLPAPARAFKVKPPHGFQKKMKLEVVDKRNPMFIRVATVADTDDHRVKVHFDGWNNCYDYWIDADSPDIHPVGWCSKTGHPLQPPLSPLELMEASEHGGCSTPGCKGIGHFKRARHLGPHSAANCPYSEINLNKDRIFPDRLSGEMPPASPSFPRNKRTDANESSSSPEIRDQHADDVKEDFEERTESEMRTSHEARGAREEPTVQQAQRRSAVFLSFKSPIPCLPLRWEQQSKLLPTVAGIPASKVSKWSTDEVSEFIQSLPGCEEHGKVFKDEQIDGEAFLLMTQTDIVKIMSIKLGPALKIFNSILMFKAAEKNSHNEL
For B3, the binding entry in experiment [2] was “binds weakly”; in experiment [4] it was “binds”; in experiment [5] it was “binds”; in experiment [6], “binds”.

B4: HA-tagged L3MBTL3 wild-type (full length 1-780) (protein, UniProt Q96JM7 1-780)
chain: MTESASSTSGQEFDVFSVMDWKDGVGTLPGSDLKFRVNEFGALEVITDENEMENVKKATATTTWMVPTAQEAPTSPPSSRPVFPPAYWTSPPGCPTVFSEKTGMPFRLKDPVKVEGLQFCENCCQYGNVDECLSGGNYCSQNCARHIKDKDQKEERDVEEDNEEEDPKCSRKKKPKLSLKADTKEDGEERDDEMENKQDVRILRGSQRARRKRRGDSAVLKQGLPPKGKKAWCWASYLEEEKAVAVPAKLFKEHQSFPYNKNGFKVGMKLEGVDPEHQSVYCVLTVAEVCGYRIKLHFDGYSDCYDFWVNADALDIHPVGWCEKTGHKLHPPKGYKEEEFNWQTYLKTCKAQAAPKSLFENQNITVIPSGFRVGMKLEAVDKKNPSFICVATVTDMVDNRFLVHFDNWDESYDYWCEASSPHIHPVGWCKEHRRTLITPPGYPNVKHFSWDKYLEETNSLPAPARAFKVKPPHGFQKKMKLEVVDKRNPMFIRVATVADTDDHRVKVHFDGWNNCYDYWIDADSPDIHPVGWCSKTGHPLQPPLSPLELMEASEHGGCSTPGCKGIGHFKRARHLGPHSAANCPYSEINLNKDRIFPDRLSGEMPPASPSFPRNKRTDANESSSSPEIRDQHADDVKEDFEERTESEMRTSHEARGAREEPTVQQAQRRSAVFLSFKSPIPCLPLRWEQQSKLLPTVAGIPASKVSKWSTDEVSEFIQSLPGCEEHGKVFKDEQIDGEAFLLMTQTDIVKIMSIKLGPALKIFNSILMFKAAEKNSHNEL
With B4, in experiment [7], the binding result is reported as “binds”.

Source of the values: article PMC5915600.
